{
  "source": "PubChem BioAssay AID624297",
  "about": "(National Center for Advancing Translational Sciences (NCATS), 2012)",
  "note": "Screen size: about 340,000 compounds; about 6,200 (1.8%) were called active. Inconclusive means that the source gave no clear call. Such entries were picked first, then a sample of the others. Calls come from the whole dose curve; as a rule, active = well fitted activation curve with a large enough effect; inconclusive = small, poorly fitted or top-dose-only effect; inactive = no such curve, though single readings can be large or run the other way. Potencies of inconclusive entries are doubtful fits and often do not repeat. Potency is the fitted concentration of half-maximal effect.",
  "data": [
    {"experiment": "A quantitative high throughput screen for small molecules that induce DNA re-replication in SW480 colon adenocarcinoma cells; note: nearly all actives have a fitted effect of over 55% in size; for re-replication activation: % of control where 0% means no effect.", "conditions": "Hoechst DNA content imaging, 48 h; re-replication activation: at 46.1 µM (top of the series) unless noted", "outline": "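DNA re-replication was detected as more nuclei of elevated Hoechst intensity after 48 hr exposure to compound (23 nL pinned per well of 250 cells).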", "values": [
      {"molecule": "Cc1ccc(-n2ncc3c(=O)n(CC(=O)NCc4ccco4)cnc32)cc1", "Potency": "inconclusive: 10.3 µM [activator, partial curve]"},
      {"molecule": "CCOC(=O)C1=C(C)NC(C)=C(C(=O)OCC)C1c1cc2ccc(C)cc2[nH]c1=O", "Potency": "inconclusive: 25.9 µM [activator, single point]"},
      {"molecule": "CCOc1ccc(C2NC(=O)C(C#N)=C(S)N2c2ccc(OC)cc2)cc1OC", "note": "(stereo not given)", "Potency": "inactive"},
      {"molecule": "COc1ccc(C(O)Cn2ccsc2=NC(C)=O)cc1", "note": "(stereo not given)", "Potency": "inconclusive: 23.1 µM [activator, partial curve, poor fit]"},
      {"molecule": "Cc1ccnn1CC(=O)N/N=C/c1ccc([N+](=O)[O-])s1", "Potency": "inconclusive: 16.4 µM [activator, single point]"},
      {"molecule": "O=C(CN1C2CCCC1CC(NC(=O)c1ccccc1)C2)Nc1ccccc1C(F)(F)F", "note": "(stereo not given)", "Potency": "inconclusive: 29.1 µM [activator, single point]"},
      {"molecule": "Cc1cc(O)cc2c1C1CCC3(C)C(O)CCC3C1C=C2", "note": "(stereo not given)", "Potency": "inconclusive: 23.1 µM [activator, single point]"},
      {"molecule": "CC1CCN(C(=O)Cn2nnc(-c3cccs3)n2)CC1", "Potency": "inconclusive: 2.06 µM [activator, full curve, poor fit]"},
      {"molecule": "CCN(CC)CCNc1nc(-c2ccco2)c2c(c1C#N)CC(C)(C)OC2", "Potency": "inactive"},
      {"molecule": "Cn1cc(C2OC(=O)c3ccccc32)c2ccccc21", "note": "(stereo not given)", "Potency": "inconclusive: 29.1 µM [activator, single point]"},
      {"molecule": "CC(=O)n1c(C=Nc2ccccc2)c(O)c2ccccc21", "Potency": "inconclusive: 18.4 µM [activator, single point]"},
      {"molecule": "O=C(N/N=C\\C=C\\c1ccc([N+](=O)[O-])o1)c1cccs1", "Potency": "active: 11.6 µM"},
      {"molecule": "CCCCN1C(=O)C(C(=O)OCc2ccccc2)CC2=C1CCCC2=O", "note": "(stereo not given)", "Potency": "inconclusive: 0.651 µM [activator, full curve, poor fit]"},
      {"molecule": "COc1ccc(NC(=O)COc2ccc(/C=C/c3cccc[n+]3C)cc2OC)cc1", "Potency": "inactive"},
      {"molecule": "COc1cccc(C2CC(c3cccs3)=NN2C(=O)CSc2nc3ccccc3s2)c1OC", "note": "(stereo not given)", "Potency": "inconclusive: 29.1 µM [activator, partial curve, poor fit]"},
      {"molecule": "Cc1cccn2c(=O)c3cc(C(=O)NCCN4CCOCC4)c(=N)n(Cc4ccc(F)cc4)c3nc12", "Potency": "inconclusive: 0.517 µM [activator, full curve, poor fit]"},
      {"molecule": "Cc1ccc(-c2cc3nn(-c4ccccc4)c(N)c3c(=O)o2)cc1", "Potency": "inconclusive: 16.4 µM [activator, single point]"},
      {"molecule": "Cc1ccc(Nc2c(N)c(=O)oc3ccccc23)cc1", "Potency": "inconclusive: 16.4 µM [activator, single point]"},
      {"molecule": "O=C(CN1C(=O)NC2(CCCc3ccccc32)C1=O)N1CCCCC1", "note": "(stereo not given)", "Potency": "inactive"},
      {"molecule": "COc1ccc2c(c1)C(=O)N1[C@H]3c4cc(OC)ccc4OC[C@@H]3[C@H](c3ccccc3)[C@]1(C)C(=O)N2", "Potency": "inconclusive: 18.4 µM [activator, single point]"},
      {"molecule": "CC(C)CC(COCc1cccc(Cl)c1)N1CCN(C(=O)c2ccc(C(F)(F)F)cc2)CCC1=O", "note": "(stereo not given)", "Potency": "inconclusive: 29.1 µM [activator, single point]"},
      {"molecule": "COc1ccc(N2CCN(c3ncnc4c3[nH]c3ccccc34)CC2)cc1", "Potency": "inactive"},
      {"molecule": "Cc1ccc(NC(=O)Cn2cc(C(=O)C3CC3)c3ccccc32)c(C)c1", "Potency": "inconclusive: 6.51 µM [activator, partial curve]"},
      {"molecule": "Nc1ccc2oc(-c3cccc4ccccc34)nc2c1", "Potency": "inconclusive: 2.06 µM [activator, full curve, poor fit]"},
      {"molecule": "CSc1ccc(OC2CCN(Cc3ccccc3)CC2)cc1", "Potency": "inconclusive: 0.82 µM [activator, partial curve, poor fit]"},
      {"molecule": "COc1ccccc1CNC(=O)COc1ccc(S(=O)(=O)N2CCOCC2)cc1", "Potency": "inconclusive: 0.0116 µM [activator, full curve, poor fit]"},
      {"molecule": "Cc1cc(C)nc(Sc2nc(C)nc3c2oc2ccccc23)n1", "Potency": "inconclusive: 23.1 µM [activator, single point]"},
      {"molecule": "COc1cc(/C=N/NC(=O)c2ccc(Cl)cc2)ccc1OCC(=O)N1CC(C)OC(C)C1", "note": "(stereo not given)", "Potency": "inactive"},
      {"molecule": "O=C(Nc1ccccc1O)c1cc(S(=O)(=O)N2CCOCC2)c(Cl)cc1Cl", "Potency": "inconclusive: 0.651 µM [activator, full curve]"},
      {"molecule": "c1ccc(SCCN2CCc3ccccc3C2)cc1", "Potency": "inconclusive: 18.4 µM [activator, single point]"},
      {"molecule": "O=C(/C=C/c1ccccc1)c1c[nH]c2ccccc12", "Potency": "inconclusive: 10.3 µM [activator, partial curve]"},
      {"molecule": "CC12CC(c3ccccc3O1)C(C(=O)NCc1ccccc1)C(=O)N2", "note": "(stereo not given)", "Potency": "inconclusive: 16.4 µM [activator, single point]"},
      {"molecule": "COCCN(C)C(=O)CCc1nnc(Cc2ccc(-c3ccccc3)cc2)o1", "Potency": "inconclusive: 6.51 µM [activator, single point]"},
      {"molecule": "CCc1noc(C)c1C(=O)NC1CCCc2c1cnn2-c1ccc(C(C)(C)C)cc1", "note": "(stereo not given)", "Potency": "inactive"},
      {"molecule": "O=C(c1cccc(S(=O)(=O)N2CCOCC2)c1)N(CCc1ccccc1)Cc1ccccc1", "Potency": "inactive"},
      {"molecule": "Cc1ccc(S(=O)(=O)SC/C=C/CSS(=O)(=O)c2ccc(C)cc2)cc1", "Potency": "inconclusive: 18.4 µM [activator, single point]"},
      {"molecule": "O=S1(=O)CCN(c2ccccc2CC(c2c[nH]c3ccccc23)c2c[nH]c3ccccc23)CC1", "Potency": "inconclusive: 18.4 µM [activator, single point]"},
      {"molecule": "COc1ccc(OC)c(C2Nc3c(Cl)ccc(C(=O)O)c3C3C=CCC32)c1", "note": "(stereo not given)", "Potency": "inconclusive: 18.4 µM [activator, partial curve]"},
      {"molecule": "CCN(CC)c1ccc(C(=S)NC2CCCCC2)cc1", "Potency": "inconclusive: 25.9 µM [activator, partial curve, poor fit]"},
      {"molecule": "CN(CC(=O)Nc1cccc(F)c1)C(=O)c1cccc2ccccc12", "Potency": "inactive"},
      {"molecule": "COc1ccc(C(CC(=O)c2ccc(C)cc2)C(C#N)C#N)cc1OC", "note": "(stereo not given)", "Potency": "inconclusive: 25.9 µM [activator, single point]"},
      {"molecule": "O=C(NCCc1ccc(Cl)cc1)Nc1ccc(F)cc1", "Potency": "inactive"},
      {"molecule": "CC1CCN(CC(=O)Nc2ccccc2C(=O)c2ccccc2)CC1", "Potency": "inactive"},
      {"molecule": "CC(C)(C)OC(=O)N1CCC(Cc2cc(-c3ccccc3)no2)(C(=O)O)CC1", "Potency": "inactive"},
      {"molecule": "Cc1cccc(CNS(=O)(=O)c2ccc(-c3cnc(C4CC4)o3)cc2)c1", "Potency": "inconclusive: 29.1 µM [activator, single point]"},
      {"molecule": "COC(=O)/C(C#N)=C\\c1c(OC)[nH]c2ccccc12", "Potency": "inconclusive: 20.6 µM [activator, partial curve, poor fit]"},
      {"molecule": "CC(C)Oc1ccc(S(=O)(=O)N2CCCCC2)cc1NC(=O)CN1C(=O)NC(C)(c2ccccc2)C1=O", "note": "(stereo not given)", "Potency": "inconclusive: 18.4 µM [activator, single point]"},
      {"molecule": "O=C(NCC1CCCO1)c1cc(-c2ccc(F)cc2)no1", "note": "(stereo not given)", "Potency": "inconclusive: 7.31 µM [activator, partial curve, poor fit]"},
      {"molecule": "CC(C)CN(C[C@@H](O)[C@H](Cc1ccccc1)NC(=O)O[C@H]1CO[C@H]2OCC[C@H]21)S(=O)(=O)c1ccc(N)cc1", "Potency": "inconclusive: 16.8 µM [activator, partial curve, poor fit]"},
      {"molecule": "CCN=C1S/C(=C/c2ccc(-c3ccc(F)cc3)o2)C(=O)N1CC", "Potency": "inconclusive: 25.9 µM [activator, single point]"},
      {"molecule": "CN(C)c1ccc(-c2nc3cc(N)ccc3o2)cc1", "Potency": "inconclusive: 14.6 µM [activator, single point]"},
      {"molecule": "Brc1ccc2[nH]c3c(NCc4ccccn4)ncnc3c2c1", "Potency": "inactive"},
      {"molecule": "O=C(Nc1nnc(-c2ccc(F)cc2)o1)C1CCCN1S(=O)(=O)c1cccs1", "note": "(stereo not given)", "Potency": "inconclusive: 2.91 µM [activator, single point]"},
      {"molecule": "Clc1ccsc1-c1csc(-c2cccnc2)n1", "Potency": "inconclusive: 29.1 µM [activator, single point]"},
      {"molecule": "Cc1c(CCC(=O)NCC(=O)NCC(=O)O)c(=O)oc2cc3oc4c(c3cc12)CCCC4", "Potency": "inconclusive: 0.092 µM [activator, full curve, poor fit]"},
      {"molecule": "COc1cc(/C=N/NC(=O)c2cc(C)oc2C)ccc1O", "Potency": "inconclusive: 16.4 µM [activator, single point]"},
      {"molecule": "N/C(CSc1ccc(Cl)cc1)=N\\NC(=O)c1ccncc1", "Potency": "inconclusive: 4.11 µM [activator, full curve, poor fit]"},
      {"molecule": "Cc1cc(C)cc(OCC(=O)OCC(=O)Nc2c(C)n(C)n(-c3ccccc3)c2=O)c1", "Potency": "inconclusive: 0.0731 µM [activator, full curve, poor fit]"},
      {"molecule": "COc1ccc(CC(=O)N2N=C(C)CC2(O)c2cccnc2)cc1", "note": "(stereo not given)", "Potency": "inactive"},
      {"molecule": "O=C(Nc1cccc2ccccc12)c1ccc([N+](=O)[O-])o1", "Potency": "inconclusive: 4.11 µM [activator, single point]"},
      {"molecule": "COc1ccc(-c2csc(Cc3nc(O)cs3)n2)cc1", "Potency": "inconclusive: 29.1 µM [activator, partial curve, poor fit]"},
      {"molecule": "O=C(CCl)c1ccc(Cc2ncc(C(F)(F)F)cc2Cl)s1", "Potency": "inconclusive: 29.1 µM [activator, single point]"},
      {"molecule": "O=C1CCN(CCc2ccccc2)CCN1CCO", "re-replication activation": "inactive: -13% [at 9.22 µM]"},
      {"molecule": "Cc1ccc(C)c(S(=O)(=O)N2CCCC2CNC(=O)C(=O)NCCc2ccccc2)c1", "note": "(stereo not given)", "Potency": "inconclusive: 29.1 µM [activator, single point]"},
      {"molecule": "Cc1ccc(CNC(=O)C2CC(c3ccccc3F)=NO2)cc1", "note": "(stereo not given)", "Potency": "inconclusive: 29.1 µM [activator, single point]"}
    ]}
  ]
}
